Experimental data published in patent US20220096411A1, “COMBINING METABOLIC STIMULATION AND AMINO ACIDS TO SENSITIZE TOLERANT BACTERIA TO ANTIBIOTICS” (priority 2019, published 2022).
At least one compound was matched to its structure with a doubt left.

How the values were obtained:
[1] = test system: Escherichia coli K12 strain MG1655; assay: Killing assay (CFU) of tolerant stationary phase cultures; assay type: cell-based
[2] = test system: Escherichia coli K12 strain MG1655; assay type: cell-based; conditions: 10 mM, no antibiotic

## CC(=O)C(=O)O [pyruvate]
[1]; MOPS-rich medium, D-methionine added on top of pyruvate, FIG. 3A
  sensitization of stationary phase MG1655 to ampicillin in MOPS-rich medium: restored ampicillin lethality
[1]; cultures treated with ampicillin and metabolite, FIG. 1A
  performance of metabolite in sensitizing cultures to ampicillin (CFU confirmed cell death): weak
[2]; cultures grown in 1% LB medium, FIG. 7A right
  effect of carbon source on growth and population density (CFU): did stimulate growth and an increase in population density
[2]; cultures grown in 100% LB medium, FIG. 7A left
  effect of carbon source on population density (CFU): did not lead to an increase in population density
